# Assay results

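Genome-wide siRNA knockdown in TC32 Ewing sarcoma cells, comparing luciferase light from an NR0B1-promoter reporter with a CMV-promoter reporter 48 hours after transfection.
Each siRNA was applied at 20 nM.
A z-score of the log NR0B1-over-CMV signal, less the median of siRNAs with the same seed; more negative means a stronger specific loss of the NR0B1 reporter.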

This is part of the screen; most of the strongest results are not listed here.
Sequences are the guide (antisense) strand, without overhang.

Sequence | target gene | seed-corrected z-score
UUCACAACAUCAUCCACCC | TMEM98 | 0.09023
UCCGAUCAUAGUGGAGUGC | GJD2 | -1.14
AUUUGAGCGGGUAAUAAGC | PRDM13 | 0.1115
UUCCAGUCCACUUCAUAGC | SLC22A1 | 0.1686
UCCAGAUCCGCAUAGAGCA | C6orf25 | 0.1556
UUGAGAAUCAACUUGAUUG | LOC643201 | -0.3249
UCUCUUACUACAGCAAUAG | TMEM158 | 0.86
UUUGCUGGUACAGGGAACC | GALNT4 | -1.663
UAUGAGUAACCGAUGAAGG | ECT2L | -1.597
AGAGGGACUGGGAGGUUGU | CNTNAP3B | -0.7074
UGUGGAGGUACAUUGAUGC | ETV4 | -0.6641
UCGUCUUGAACUCUCAUCC | INPP4A | 1.259
UUUCGUGUAACUUCGAAAG | DIAPH3 | 0.02766
UCCUAGUGAACCCUCCUAC | ARL6IP1P2 | 1.237
UAGGGUCCUACGCAGAGCA | FFAR1 | -0.8916
AACUCUAGCAGCACAUCCC | TNFAIP8L2 | -1.121
UCAUUCACAGGUAUGUUCC | SAP30L | 0.2634
AAGGUUACGAGGUAUAUUC | PIN4P1 | -1.134
UAACCGAAGACAUAGCAGG | MED13 | 0.4182
UAUUUUGCAUGGUCGUCCU | EIF5A2 | 0.03218
UCCGAGAUGACCGAGUUGA | PLPPR3 | 0.7379
UCACGUAGAAUAAAAUCCG | LOC645195 | 1.01
UCCUGUGCGAUUUUCAUUC | CLEC1B | 1.47
AAAGUUUGUGCGGUCAAUG | ACYP2 | -0.5351
UAUGAGAACCAAGUGAAGG | EXOC4 | 0.1499
AUCUGAAUGGGAGUUUUUC | AMOT | -0.1523
UUUGUGACAAGGAAUUCAG | OR7A17 | -0.2265
AAACUCAUCCGAAGCAUCC | AK7 | -0.7318
UUAUCUAGCAAUAUGGUGG | CCNYL3 | -0.8967
UUUGGAUACGCUGAGCAAC | POLI | -0.1705
UCAUGUAUUUGACCUCUUC | C1orf21 | 0.7956
UUGACGAAUACAGUUAAGC | ARHGEF3 | 1.424
UUUGUAAUCAGUGCGGUCC | C11orf40 | -0.2411
UUCUCGUUCAUCACGUCGC | MAEA | 0.6729
UUGUAAUCAAGAUUCUUGG | MIS18A | -0.5312
UUCUUGUCAUCGGUGGAGC | ZNF683 | -0.4318
UAUCUUAAAUCAAAGUCCU | APCDD1L-AS1 | -0.3558
AAAGUAGACAUAAAGUUGG | SLC25A53 | -0.7476
AAAUUGACUAUGUUGUGGU | AUP1 | 0.2268
AAAGCAAUAACUGGGAGAG | C5orf58 | 0.6335
UCGUGCUCCAGUCAUAGCC | PVRL2 | -0.1539
AGGGUUUUGACAGCGAUCU | GFOD1 | 0.3778
AAUCCGCCCAAUCUCCUUC | ETFB | -0.5171
UUCUCGAUAAGUAGUACCU | GPX1 | 0.6643
UAGGCUGUGACGAAGUUCA | VAT1L | -0.7707
UUCGAUGUCGGAAUUGAUA | WNT5A | 0.1302
UGAUUAAUCUCCAGCAUCG | RDH10 | 1.078
AUAGGCACAAUAGUUGUAG | ETV5 | 0.578
AGAUCUUCAGAUUACAGCC | SMAD2 | -0.4044
AAUCGUGUAACCUUCUUGU | RUSC1-AS1 | -1.12
UCUUCUACCAAGUGAGAUC | IMPG2 | -0.3115
UUAUCGUAAAAAGAGAUGC | LRRN3 | 0.4059
UAACUGAUCACAAUGACCA | FFAR4 | -0.4266
GUAUGUUUUGGUGAUUUUC | WHSC1 | -0.08136
AGAGUUACCCAUUAAGUGC | IZUMO2 | -1.136
UAAUUUUUCUGAUGCCUAG | GJA10 | 0.02297
AGGUCUAUCAGGAUGUUCU | PIM2 | 0.1649
UUAUCCAUCACGACCGUCC | SAFB2 | 0.4058
UUUCGCUUCAUGGUGAGUG | CDKN2B | -1.59
CUGAAAUUCAUCUCUGAUG | LOC728684 | 0.2407
UGCAGUGCUCCCUUCAUGC | IGLL3P | -0.1365
AAUCCAGUAACUUAAGAUG | TMEM126A | -0.986
UUGAUGGUGACAGGAUUCC | PGAP3 | -0.1628
UUUCUUACGGAUGCAUCUC | CLNK | -0.03331
AUUCAGGACCCAAAGUUCC | ZNF251 | -0.6063
UAUCCUCCAAAAACGUGUC | SERPINA2 | 0.2595
UAGACAAUCUGAUUCUUCC | NPHP4 | 0.536
UGAAUUUCUUGAGAUCUUG | CDK2 | -1.338
AAAGCAGAGACAAUAAAGU | PCAT18 | 0.2453
UCGCUGUCACUGAUACUUC | FDCSP | -0.2604
AACCGUAAAAUGCACCGGC | RARS | -0.239
UUUGAUCCUGCAUUAUUCG | GOLGA5 | -0.5497
AUACUGACAAACGUGAGGC | WNK3 | -0.5476
UUAAGUCCCUGGUACGUUC | TNC | 0.8798
AAAAUUUUUCCGAAUUGCC | RBFOX3 | 1.317

10 of the entries, repeated:

Sequence	target gene	seed-corrected z-score
UCUUCUACCAAGUGAGAUC	IMPG2	-0.3115
UUCGAUGUCGGAAUUGAUA	WNT5A	0.1302
GUAUGUUUUGGUGAUUUUC	WHSC1	-0.08136
AACUCUAGCAGCACAUCCC	TNFAIP8L2	-1.121
UAUUUUGCAUGGUCGUCCU	EIF5A2	0.03218
UUCUCGUUCAUCACGUCGC	MAEA	0.6729
UAAUUUUUCUGAUGCCUAG	GJA10	0.02297
UCGCUGUCACUGAUACUUC	FDCSP	-0.2604
UAACCGAAGACAUAGCAGG	MED13	0.4182
UCAUUCACAGGUAUGUUCC	SAP30L	0.2634

From PubChem BioAssay record AID1159506 (NCATS, 2015).